Source: publication PMC13483900
Results are given in words; binding and its absence hold for the method and conditions named. Some entries that bind do so weakly or less than the wild type.

Sequences of proteins named here, by UniProt entry; tags and fusion partners are left off. A change or cut given only in a name is not applied to a line headed by its entry.
UniProt Q2NKJ3: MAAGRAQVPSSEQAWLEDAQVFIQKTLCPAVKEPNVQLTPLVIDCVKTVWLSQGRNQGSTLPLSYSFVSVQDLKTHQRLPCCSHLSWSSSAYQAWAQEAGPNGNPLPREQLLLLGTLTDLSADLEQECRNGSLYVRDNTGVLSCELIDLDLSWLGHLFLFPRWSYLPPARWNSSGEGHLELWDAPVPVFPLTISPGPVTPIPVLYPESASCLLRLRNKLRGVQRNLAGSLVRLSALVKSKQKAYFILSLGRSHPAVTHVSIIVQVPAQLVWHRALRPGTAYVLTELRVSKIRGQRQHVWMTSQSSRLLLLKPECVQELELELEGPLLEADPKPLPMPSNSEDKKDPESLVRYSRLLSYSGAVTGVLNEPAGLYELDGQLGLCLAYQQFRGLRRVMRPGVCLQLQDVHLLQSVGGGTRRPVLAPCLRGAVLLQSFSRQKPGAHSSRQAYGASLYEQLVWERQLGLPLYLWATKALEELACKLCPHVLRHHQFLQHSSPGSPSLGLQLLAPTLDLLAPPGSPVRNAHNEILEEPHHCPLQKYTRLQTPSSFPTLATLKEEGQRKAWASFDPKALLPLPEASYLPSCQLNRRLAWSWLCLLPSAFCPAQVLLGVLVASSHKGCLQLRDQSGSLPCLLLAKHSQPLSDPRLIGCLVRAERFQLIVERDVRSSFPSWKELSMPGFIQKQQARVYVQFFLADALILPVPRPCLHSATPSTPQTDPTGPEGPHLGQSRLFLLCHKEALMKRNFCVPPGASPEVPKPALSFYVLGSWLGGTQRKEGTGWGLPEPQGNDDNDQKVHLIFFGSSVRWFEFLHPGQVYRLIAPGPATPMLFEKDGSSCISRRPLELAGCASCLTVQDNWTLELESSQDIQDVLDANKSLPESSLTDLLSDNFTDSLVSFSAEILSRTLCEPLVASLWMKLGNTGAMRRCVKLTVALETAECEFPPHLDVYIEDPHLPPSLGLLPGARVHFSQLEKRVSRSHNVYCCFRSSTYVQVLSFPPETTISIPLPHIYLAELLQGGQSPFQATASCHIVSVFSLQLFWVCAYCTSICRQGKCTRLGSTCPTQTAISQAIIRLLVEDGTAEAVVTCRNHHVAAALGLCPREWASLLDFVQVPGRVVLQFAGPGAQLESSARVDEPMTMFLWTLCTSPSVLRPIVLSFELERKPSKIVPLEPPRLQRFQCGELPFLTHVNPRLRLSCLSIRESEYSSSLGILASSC
UniProt Q9H668: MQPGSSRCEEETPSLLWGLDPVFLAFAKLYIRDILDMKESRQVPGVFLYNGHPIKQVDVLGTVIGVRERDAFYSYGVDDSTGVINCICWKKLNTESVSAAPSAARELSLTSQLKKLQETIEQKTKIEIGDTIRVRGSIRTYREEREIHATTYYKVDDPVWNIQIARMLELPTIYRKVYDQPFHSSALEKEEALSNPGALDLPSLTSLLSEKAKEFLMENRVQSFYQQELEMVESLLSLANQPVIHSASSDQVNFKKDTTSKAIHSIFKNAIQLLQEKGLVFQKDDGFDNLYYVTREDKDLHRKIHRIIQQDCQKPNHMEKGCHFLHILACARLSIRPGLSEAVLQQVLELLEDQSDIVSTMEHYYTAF
UniProt Q86WV5: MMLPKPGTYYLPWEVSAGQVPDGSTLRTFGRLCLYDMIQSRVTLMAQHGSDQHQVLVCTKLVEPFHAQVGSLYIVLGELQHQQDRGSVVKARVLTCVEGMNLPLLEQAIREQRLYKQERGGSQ
UniProt P09884: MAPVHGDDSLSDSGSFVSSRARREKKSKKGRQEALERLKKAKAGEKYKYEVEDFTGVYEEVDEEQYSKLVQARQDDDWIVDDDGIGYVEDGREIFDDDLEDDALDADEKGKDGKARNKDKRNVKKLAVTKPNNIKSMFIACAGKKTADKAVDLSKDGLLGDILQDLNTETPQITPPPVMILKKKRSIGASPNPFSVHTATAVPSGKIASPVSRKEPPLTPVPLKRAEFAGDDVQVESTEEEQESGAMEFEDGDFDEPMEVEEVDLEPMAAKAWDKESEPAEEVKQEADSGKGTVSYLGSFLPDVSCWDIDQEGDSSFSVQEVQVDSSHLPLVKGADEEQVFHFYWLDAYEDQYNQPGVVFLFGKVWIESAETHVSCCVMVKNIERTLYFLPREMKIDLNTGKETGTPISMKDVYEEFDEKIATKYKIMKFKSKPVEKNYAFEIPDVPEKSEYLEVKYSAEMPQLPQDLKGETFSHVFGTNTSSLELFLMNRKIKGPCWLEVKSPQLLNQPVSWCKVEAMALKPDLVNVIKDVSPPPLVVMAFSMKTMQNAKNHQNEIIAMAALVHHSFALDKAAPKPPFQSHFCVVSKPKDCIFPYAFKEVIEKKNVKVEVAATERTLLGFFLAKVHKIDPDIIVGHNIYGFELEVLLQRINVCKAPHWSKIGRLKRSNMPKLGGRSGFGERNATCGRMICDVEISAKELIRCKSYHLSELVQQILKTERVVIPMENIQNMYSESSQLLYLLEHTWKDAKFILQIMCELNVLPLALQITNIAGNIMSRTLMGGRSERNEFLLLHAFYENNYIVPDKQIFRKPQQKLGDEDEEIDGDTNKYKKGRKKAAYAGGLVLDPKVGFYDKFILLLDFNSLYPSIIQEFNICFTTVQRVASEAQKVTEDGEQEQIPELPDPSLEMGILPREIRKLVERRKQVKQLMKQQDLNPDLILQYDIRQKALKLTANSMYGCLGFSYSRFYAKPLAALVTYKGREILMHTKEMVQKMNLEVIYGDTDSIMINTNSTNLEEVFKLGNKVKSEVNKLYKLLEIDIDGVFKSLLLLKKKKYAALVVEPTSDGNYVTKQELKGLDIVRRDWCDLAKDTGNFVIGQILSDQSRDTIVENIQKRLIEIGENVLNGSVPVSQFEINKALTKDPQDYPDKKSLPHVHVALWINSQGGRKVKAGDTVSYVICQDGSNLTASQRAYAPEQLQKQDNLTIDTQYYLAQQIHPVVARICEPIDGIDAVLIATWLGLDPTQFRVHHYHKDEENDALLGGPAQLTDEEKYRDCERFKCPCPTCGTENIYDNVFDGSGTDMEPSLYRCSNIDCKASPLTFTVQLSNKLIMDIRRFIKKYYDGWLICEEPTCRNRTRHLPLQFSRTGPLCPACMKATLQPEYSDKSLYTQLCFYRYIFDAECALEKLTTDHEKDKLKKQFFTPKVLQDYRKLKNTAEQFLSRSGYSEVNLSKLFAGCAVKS
UniProt P54274: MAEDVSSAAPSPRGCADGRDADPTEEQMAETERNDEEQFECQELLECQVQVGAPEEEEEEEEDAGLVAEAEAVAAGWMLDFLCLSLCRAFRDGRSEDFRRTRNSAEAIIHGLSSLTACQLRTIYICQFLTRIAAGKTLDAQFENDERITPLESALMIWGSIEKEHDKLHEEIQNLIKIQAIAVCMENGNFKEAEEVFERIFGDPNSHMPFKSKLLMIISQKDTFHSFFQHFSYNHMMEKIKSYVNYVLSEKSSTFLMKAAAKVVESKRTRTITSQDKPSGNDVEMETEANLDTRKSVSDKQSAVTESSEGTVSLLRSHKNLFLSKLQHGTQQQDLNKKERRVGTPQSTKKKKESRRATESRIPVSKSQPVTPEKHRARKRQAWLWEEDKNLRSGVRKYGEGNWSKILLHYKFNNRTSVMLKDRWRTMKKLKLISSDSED

Tests used:
[1] = molecular target: CST (CTC1-STN1-TEN1) (human) (UniProt Q2NKJ3+Q9H668+Q86WV5); assay: co-purification; CST and Pol α/prim co-expressed in Hi5 insect cells by co-infection; complex purified as described (He et al, 2022); SDS-PAGE
[2] = molecular target: T1, TIN2 (StrepII-TINF2, long isoform) (human) (UniProt Q9BSI4); assay: co-purification (Strep-Tactin affinity, then SEC); subunits co-expressed in Hi5 insect cells; lysate (300 mM NaCl) on Streptactin XT resin via the Strep tag on TIN2, biotin elution, Superose 6 in 50 mM HEPES-KOH pH 7.6, 300 mM NaCl, 10% glycerol, 1 mM DTT; SDS-PAGE and immunoblot of the preparations
T1 sequence: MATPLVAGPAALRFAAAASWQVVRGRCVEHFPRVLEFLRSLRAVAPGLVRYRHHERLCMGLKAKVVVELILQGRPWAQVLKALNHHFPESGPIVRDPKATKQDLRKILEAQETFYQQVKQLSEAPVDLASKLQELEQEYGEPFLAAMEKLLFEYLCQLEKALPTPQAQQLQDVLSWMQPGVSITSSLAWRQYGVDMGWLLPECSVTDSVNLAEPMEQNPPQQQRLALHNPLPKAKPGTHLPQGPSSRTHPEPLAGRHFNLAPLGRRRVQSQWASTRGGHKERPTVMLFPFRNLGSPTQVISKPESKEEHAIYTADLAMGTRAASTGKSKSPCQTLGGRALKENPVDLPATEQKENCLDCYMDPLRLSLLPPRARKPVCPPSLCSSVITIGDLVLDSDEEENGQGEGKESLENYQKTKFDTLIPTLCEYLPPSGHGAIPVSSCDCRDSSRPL

| binding [1] | binding [2] | Substance |
| --- | --- | --- |
| binds |  | Polymerase α/primase (from UniProt P09884 1-1462; Q14181 1-598; P49642 1-420; P49643 1-509) (complex) |
|  | binds | TRF1 (from UniProt P54274 1-439) |
